# Measurements: PubChem BioAssay AID504467 (National Center for Advancing Translational Sciences (NCATS), 2011)
# Hit rate of the full screen: of about 330,000 compounds, about 7,700 (2.3%) were called active. Inconclusive means that the source gave no clear call. Such entries were picked first, then a sample of the others. Calls come from the whole dose curve; as a rule, active = well fitted inhibition curve with a large enough effect; inconclusive = small, poorly fitted or top-dose-only effect, or effect the other way; inactive = flat fitted curve, though single readings scatter. A potency beside an inconclusive call is a rough fit, not a confirmed value.
# Assay: qHTS screen for small molecules that inhibit ELG1-dependent DNA repair in human embryonic kidney (HEK293T) cells expressing luciferase-tagged ELG1; note: nearly all actives have a fitted effect of over 55% in size
# Details: HEK293T ELG1-luciferase reporter, luminescence, 16 h, DNA damage induced by 5-fluorouridine; series mostly up to 46.1 µM
# Method in brief: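 Quantitative HTS, concentration-response format. 2,000 cells/well co-treated with 5-fluorouridine and compound, 16 hr in 5% CO2 at 37 °C; ONE-Glo luminescence read after 30 min.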
# Potency is the fitted concentration of half-maximal effect.
row,SMILES,Potency
1,O=S(=O)(c1cccs1)N1CCN(c2ccc(Cl)cc2)CC1,inactive
2,O=C(C1CC1)N1CCc2cc(S(=O)(=O)N3CCOCC3)ccc21,inactive
3,O=C(c1ccccc1)c1ccc2nc(Nc3ccccc3)c3nncn3c2c1,"inconclusive: 32.6 µM [inhibitor, single point]"
4,COc1ccc(-n2nc3c(N4CCC(C(=O)NCc5cccc(C)c5)CC4)nnc(C)c3c2C)cc1,active: 18.3 µM
5,O=C(COC(=O)CSc1ccc(Cl)cc1)Nc1ccc2[nH]c(=O)[nH]c2c1,inactive
6,COc1cc2ccccc2cc1C(=O)Nc1cc(C)ccn1,"inconclusive: 16.4 µM [activator, partial curve]"
7,CCOC(=O)CCc1nc2ccccc2[nH]1,"inconclusive: 16.4 µM [activator, partial curve, poor fit]"
8,CCN(CC)S(=O)(=O)c1ccc(/C=C/C(=O)Nc2ccc(N3CCOCC3)cc2)cc1,active: 5.17 µM
9,O=C(Nc1ccc(Cl)cc1)N1CCc2[nH]c3ccccc3c2C1,"inconclusive: 35.5 µM [inhibitor, single point]"
10,COc1ccc(C2CC(=O)c3sc(NC(C)=O)nc3C2)cc1 (stereo unspecified),"inconclusive: 20.6 µM [activator, partial curve]"
11,COC(=O)c1sc(Nc2ccccc2)nc1C,"inconclusive: 9.2 µM [activator, partial curve]"
12,CC(C)C(=O)NCCCc1ccccc1,inactive
13,O=C(CCN1C(=O)c2cccc3cccc(c23)C1=O)N1CCOCC1,"inconclusive: 14.6 µM [activator, partial curve]"
14,CS(=O)(=O)c1ccc2nc(NC(=O)c3ccc(NS(=O)(=O)c4cccc([N+](=O)[O-])c4)cc3)sc2c1,inactive
15,CC(=O)c1ccc(S(=O)(=O)N2CCN(c3nc(-c4cccnc4)nc4ccccc34)CC2)cc1,"inconclusive: 18.3 µM [inhibitor, partial curve, poor fit]"
16,O=S(=O)(Nc1ccc2oc(-c3ccccc3)nc2c1)c1ccccc1,"inconclusive: 20.6 µM [activator, partial curve, poor fit]"
17,CCN(CC)c1ccc2cc(C#N)c(=O)oc2c1,inactive
18,N#CC1=C2SCN(Cc3ccco3)CN2C(=O)CC1c1ccc(Cl)cc1 (stereo unspecified),inactive
19,CCOC(=O)N1CCN(Cc2nc3cc(NC(=O)CC(C)C)ccc3n2C)CC1,inactive
20,CCOc1ccccc1NC(=S)Nc1ncccc1C,"inconclusive: 25.9 µM [inhibitor, partial curve, poor fit]"
21,Cc1cccc(C)c1OCc1cc(C(=O)N(Cc2nccn2C)C(C)C)no1,"inconclusive: 29.1 µM [inhibitor, single point]"
22,Cc1cc(NS(=O)(=O)c2ccc(NS(=O)(=O)c3ccc(CC(C)C)cc3)cc2)nc(C)n1,inactive
23,CN(C#N)c1nc(Cl)nc(Nc2cccc(Cl)c2)n1,inactive

# As a working copy, some entries already given.
row,SMILES,Potency
9,O=C(Nc1ccc(Cl)cc1)N1CCc2[nH]c3ccccc3c2C1,"inconclusive: 35.5 µM [inhibitor, single point]"
10,COc1ccc(C2CC(=O)c3sc(NC(C)=O)nc3C2)cc1 (stereo unspecified),"inconclusive: 20.6 µM [activator, partial curve]"
11,COC(=O)c1sc(Nc2ccccc2)nc1C,"inconclusive: 9.2 µM [activator, partial curve]"
12,CC(C)C(=O)NCCCc1ccccc1,inactive
13,O=C(CCN1C(=O)c2cccc3cccc(c23)C1=O)N1CCOCC1,"inconclusive: 14.6 µM [activator, partial curve]"
14,CS(=O)(=O)c1ccc2nc(NC(=O)c3ccc(NS(=O)(=O)c4cccc([N+](=O)[O-])c4)cc3)sc2c1,inactive
15,CC(=O)c1ccc(S(=O)(=O)N2CCN(c3nc(-c4cccnc4)nc4ccccc34)CC2)cc1,"inconclusive: 18.3 µM [inhibitor, partial curve, poor fit]"
16,O=S(=O)(Nc1ccc2oc(-c3ccccc3)nc2c1)c1ccccc1,"inconclusive: 20.6 µM [activator, partial curve, poor fit]"
17,CCN(CC)c1ccc2cc(C#N)c(=O)oc2c1,inactive
18,N#CC1=C2SCN(Cc3ccco3)CN2C(=O)CC1c1ccc(Cl)cc1 (stereo unspecified),inactive
19,CCOC(=O)N1CCN(Cc2nc3cc(NC(=O)CC(C)C)ccc3n2C)CC1,inactive

# Remaining list, next part.

row,SMILES,Potency
1,COc1ccc(NC(=S)Nc2ncccc2C)cc1OC,"inconclusive: 23.1 µM [activator, partial curve]"
2,O=C(CCOc1ccccc1)Nc1ccnn1C1CCN(Cc2ccc(O)cc2)CC1,inactive
3,CC(=O)c1sc(NC(=O)c2ccc(F)cc2)nc1-c1ccccc1,"inconclusive: 7.3 µM [activator, partial curve]"
4,N#Cc1ccccc1NC(=O)COc1ccc2c(c1)OCO2,"inconclusive: 13 µM [activator, partial curve]"
5,CC(C)(C)OC(=O)NCCCC[C@H](NC(=O)c1nc[nH]c1C(=O)NCc1ccccc1)C(=O)OC(C)(C)C,"inconclusive: 20.6 µM [inhibitor, single point]"
6,O=C(CSc1nnc(CCc2ccccc2)n1-c1ccc(Cl)cc1)NCc1ccccc1,"inconclusive: 20.6 µM [inhibitor, partial curve, poor fit]"
7,O=S(=O)(c1ccc(-c2csc(-c3cccnc3)n2)cc1)N1CCOCC1,"inconclusive: 18.3 µM [inhibitor, partial curve, poor fit]"
8,Cc1cc(NC(=O)CC2CCCC2)n(-c2nc3ccccc3[nH]2)n1,active: 23.1 µM
9,COc1cc2c(cc1OC)C(C)N(C(=O)Nc1ccccc1)CC2 (stereo unspecified),"inconclusive: 6.51 µM [inhibitor, single point]"
10,Cc1ccc(-c2nc3ccccc3[nH]2)cn1,"inconclusive: 14.6 µM [activator, partial curve]"
11,Nc1c(S(=O)(=O)c2cccc(Cl)c2)c2nc3ccccc3nc2n1CCN1CCOCC1,"inconclusive: 20.6 µM [inhibitor, single point]"
12,O=C(Nc1nc2ccccc2[nH]1)c1ccc([N+](=O)[O-])cc1,"inconclusive: 2.59 µM [activator, partial curve]"
13,O=C(O)CSc1nc2ccc(C(=O)c3ccccc3)cc2[nH]1,inactive
14,CN(CCc1ccccn1)C(=O)Nc1ccc(C(C)(C)C)cc1,"inconclusive: 18.3 µM [activator, single point]"
15,CC(=O)c1ccc(S(=O)(=O)N2CCC3(CC2)OCCO3)cc1,inactive
16,COc1ccc(-n2c(-c3ccco3)nc3c(cnn3-c3ccccc3C)c2=O)cc1,"inconclusive: 29.1 µM [inhibitor, single point]"
17,CCOC(=O)c1nnc(-c2ccc(C)cc2)nc1N1CCSCC1,"inconclusive: 29.1 µM [inhibitor, single point]"
18,Cc1nnc(SCC(=O)N2CC(C)OC(C)C2)n1-c1ccccc1 (stereo unspecified),"inconclusive: 20.6 µM [activator, partial curve, poor fit]"
19,COc1ccc(-c2cc(C(=O)OCC(=O)N3CCCC3)c3ccccc3n2)cc1,"inconclusive: 29.1 µM [inhibitor, single point]"
20,CCN1CCN(c2ccc(S(=O)(=O)N3CCOCC3)cc2NC(=O)C(C)Oc2cccc(Cl)c2)CC1 (stereo unspecified),"inconclusive: 4.61 µM [inhibitor, single point]"
21,CCn1cc(C2N3CC4(C)CN2CC(C)(C3)C4=O)c2ccccc21 (stereo unspecified),inactive
22,CC(C)(C)c1ccc(-n2nc(C(N)=O)c(O)cc2=O)cc1,inactive
23,Cc1c(C(C)(C)C)s/c(=N/S(=O)(=O)c2ccccc2)n1C,inactive
